# Source: PubChem BioAssay AID588499 (NMMLSC, 2011)
# In all, about 360,000 compounds went through this assay and about 610 (0.17%) were called active. The inconclusive results got no clear call from the source; some entries with a clear call stand among them for comparison. No stated cut-off is given here; in the data, active means inhibition above about 30%; inconclusive means no clear call, values can overlap the other calls; inactive means below that.
# Test system: Botulinum neurotoxin type A light chain protease (Clostridium botulinum A str. ATCC 3502)
# Assay: blockers of BoNT/A LC substrate cleavage – biochemical, flow cytometry, MLPCN library, primary screen (AID 588499); further: plate controls were buffer without enzyme for full effect and enzyme alone for no effect
# Conditions: multiplex microsphere protease substrate cleavage, at 10 µM, hits give high values
row,Compound,inhibition
1,Cc1ccc(-c2nnn(CC(=O)N(Cc3ccco3)C(C(=O)NC(C)(C)C)c3cccs3)n2)o1 (configuration not stated),inactive: 1%
2,O=C(Cn1cnc2c(OCc3ccccc3)ncnc21)N[C@H](CO)Cc1cc2ccccc2[nH]1,inactive: 0%
3,CCN(c1ccccc1)S(=O)(=O)c1cccc(C(=O)NCc2ccncc2)c1,inconclusive: -2.5%
4,Cc1c(N=C/C=C/c2ccccc2)cnn1C,inactive: -0.1%
5,O=C(Nc1ccccc1)c1ccc2nc(-c3ccco3)c(-c3ccco3)nc2c1,inconclusive: 33%
6,c1ccc(CNc2ccccn2)cc1,inconclusive: -4.9%
7,COc1cccc(C2C([N+](=O)[O-])=C(N)Oc3c2c(=O)oc2ccccc32)c1 (configuration not stated),inactive: 0.9%
8,Cc1cnc(NC(=O)C2CCCO2)s1 (configuration not stated),inconclusive: -0.6%
9,Cc1cc(C)c(S(=O)(=O)NCc2cccs2)cc1C,inactive: -0.2%
10,Cc1[nH]c(C)c2c(=O)n(Cc3ccc(Cl)cc3)ncc12,inconclusive: 3.1%
11,CC(C)CCn1cnc2c(oc3nc4c(cc32)CCCC4)c1=O,inconclusive: 11.6%
12,CCN1c2ccccc2NC2N=C(OC)C(c3ccccc3)C21 (configuration not stated),inconclusive: -2.3%
13,Cc1cc(C)c(C)c(OCCCN(C)C)c1,inactive: -0.1%
14,Cc1ccccc1Cn1ccc(-c2ccc3c(c2)OCO3)n1,inconclusive: -0.5%
15,CCOC(=O)c1cc2c(s1)-c1ccccc1CC2,inactive: -0.9%
16,CCN(CC)c1ccc2cc(C(=O)c3cccs3)c(=O)oc2c1,active: 53.5%
17,COc1ccc(NC(=O)CCn2c(=O)c3cccn3c3ccccc32)c(OC)c1,inactive: 0.6%
18,Cc1[nH]nc(-c2ccc(O)c(C)c2O)c1-c1cnn(-c2ccccc2)c1,inconclusive: -1.1%
19,Cc1noc(NS(=O)(=O)c2ccc(N/C=C/C(=O)c3ccncc3)cc2)c1C,inconclusive: -0.2%
20,O=C(CCN1C(=O)C2CC=CCC2C1=O)NC1CCCCC1 (configuration not stated),inactive: -1.4%
21,COc1ccc(/C=N/N2CCN(c3ccccc3OC)CC2)cc1OC,inconclusive: -1.8%
22,CC(=O)Nc1ccc(Nc2cc(C)c3ccccc3n2)cc1,inconclusive: -3.8%
23,COC(=O)C(O)(CC(=O)Nc1ccc(C)c(F)c1)C(F)(F)F (configuration not stated),inconclusive: 10.4%
24,Brc1ccc(Oc2ncc(CN3CCOCC3)s2)cc1,inconclusive: 8%
25,CCN(CC)c1ccc(/C=C/C(=O)c2ccc(Br)cc2)cc1,active: 61.7%
26,OCC[C@H]1C[C@@H](O)[C@H](O)[C@@]2(OCc3ccccc32)O1,inactive: -0.4%
27,Cc1cccn2c(=O)c3cc(C(N)=S)c(=N)n(CCCOC(C)C)c3nc12,active: 41.1%

# A few values from the entries so far:
# In inhibition, Cc1[nH]c(C)c2c(=O)n(Cc3ccc(Cl)cc3)ncc12 is entered as inconclusive: 3.1%
# In inhibition, COc1ccc(/C=N/N2CCN(c3ccccc3OC)CC2)cc1OC is entered as inconclusive: -1.8%
